Test [1] has as its target T1, Flag-tagged UBF (mouse) (UniProt P25976).
T1 sequence: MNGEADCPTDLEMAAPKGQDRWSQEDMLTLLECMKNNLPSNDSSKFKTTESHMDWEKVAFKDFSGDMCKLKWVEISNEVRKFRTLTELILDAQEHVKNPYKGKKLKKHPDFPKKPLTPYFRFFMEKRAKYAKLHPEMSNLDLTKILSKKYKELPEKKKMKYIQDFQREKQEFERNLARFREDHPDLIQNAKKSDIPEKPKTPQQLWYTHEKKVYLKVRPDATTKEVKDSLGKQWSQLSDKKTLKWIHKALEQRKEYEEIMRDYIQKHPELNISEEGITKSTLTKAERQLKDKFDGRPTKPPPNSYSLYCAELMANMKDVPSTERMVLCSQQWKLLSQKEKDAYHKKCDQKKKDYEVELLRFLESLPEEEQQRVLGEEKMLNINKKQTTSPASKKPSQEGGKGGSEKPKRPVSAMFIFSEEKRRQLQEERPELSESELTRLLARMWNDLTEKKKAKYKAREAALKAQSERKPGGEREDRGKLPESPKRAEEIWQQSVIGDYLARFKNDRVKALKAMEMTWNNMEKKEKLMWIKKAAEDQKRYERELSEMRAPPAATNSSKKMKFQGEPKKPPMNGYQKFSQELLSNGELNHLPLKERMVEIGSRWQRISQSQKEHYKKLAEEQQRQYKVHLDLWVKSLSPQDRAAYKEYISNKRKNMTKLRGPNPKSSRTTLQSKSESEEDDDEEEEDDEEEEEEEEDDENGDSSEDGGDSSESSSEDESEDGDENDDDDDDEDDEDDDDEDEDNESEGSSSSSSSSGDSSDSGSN
As to the kind of experiment: co-IP; GFP tagged CTCF deletion mutants co-expressed with Flag tagged UBF in HEK293T cells; Flag pull-down (IP), detection with an antibody against GFP.

Test [2] addresses GST-tagged zinc finger (ZF) domain of CTCF (construct 1) (not stated (mouse or chicken cDNA cloned)). In words: pull-down; GST fusion proteins from bacteria incubated with ES cell nuclear extracts; binding under low-salt conditions, washing more stringent; western blot with anti-UBF; only the target purified. (In western blotting, separated proteins are transferred to a membrane and probed.)

Test [3] addresses GST-tagged zinc finger (ZF) domain of CTCFL (construct 5) (mouse). Described as above.

No constants are given. Whether binding was seen depends on the method and setting. Binding seen in cells or lysates may run through a third protein. A result given as binding can be weak or reduced; the word gives no strength. For some of these results: Tags and fused reporters may be left off the sequences shown.

As to “GFP tagged CTCF deletion mutant with the N-terminal zinc fingers (domain or fragment)”, the binding entry in test [1] is on record as “binds”.

With “GFP tagged CTCF deletion mutant with the C-terminal zinc fingers (domain or fragment)”, the binding entry in test [1] was “binds”.

B1: upstream binding factor (UBF) (protein, UniProt P25976-2 1-728)
chain: MNGEADCPTDLEMAAPKGQDRWSQEDMLTLLECMKNNLPSNDSSKFKTTESHMDWEKVAFKDFSGDMCKLKWVEISNEVRKFRTLTELILDAQEHVKNPYKGKKLKKHPDFPKKPLTPYFRFFMEKRAKYAKLHPEMSNLDLTKILSKKYKELPEKKKMKYIQDFQREKQEFERNLARFREDHPDLIQNAKKSDIPEKPKTPQQLWYTHEKKVYLKVRPDEIMRDYIQKHPELNISEEGITKSTLTKAERQLKDKFDGRPTKPPPNSYSLYCAELMANMKDVPSTERMVLCSQQWKLLSQKEKDAYHKKCDQKKKDYEVELLRFLESLPEEEQQRVLGEEKMLNINKKQTTSPASKKPSQEGGKGGSEKPKRPVSAMFIFSEEKRRQLQEERPELSESELTRLLARMWNDLTEKKKAKYKAREAALKAQSERKPGGEREDRGKLPESPKRAEEIWQQSVIGDYLARFKNDRVKALKAMEMTWNNMEKKEKLMWIKKAAEDQKRYERELSEMRAPPAATNSSKKMKFQGEPKKPPMNGYQKFSQELLSNGELNHLPLKERMVEIGSRWQRISQSQKEHYKKLAEEQQRQYKVHLDLWVKSLSPQDRAAYKEYISNKRKNMTKLRGPNPKSSRTTLQSKSESEEDDDEEEEDDEEEEEEEEDDENGDSSEDGGDSSESSSEDESEDGDENDDDDDDEDDEDDDDEDEDNESEGSSSSSSSSGDSSDSGSN
As to B1, the binding result in test [2] and in test [3] was “binds” each time.

The values above are taken from article PMC2993708.
